According to PubChem BioAssay AID445 (National Center for Advancing Translational Sciences (NCATS), 2006):
The list shows a part of the results. Further columns of the screen follow, without active or inactive calls. Compounds called inactive in the main read-out are mostly missing here. The note in brackets gives the kind of curve behind each potency; many fits are weak.

Test: IkB Signaling
Details: ABC-DLBCL IkBa-CBG/CBR dual luciferase ratio (green luciferase fused to IkBa over red control in OCI-Ly3 lymphoma cells), 4 h; measured here: control luc red channel unless noted
In short: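 Luminescence ratio of IκBα-fused green versus native red beetle luciferase in OCI-Ly3 cells, 4 h post-doxycycline with compound; red signal alone, scaled from basal (0%) to zero light (-100%), flagged nonspecific or cytotoxic effects.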

| Compound | AC50 |
| --- | --- |
| Cc1ccc(NC(=O)CSc2nc(=O)n(Cc3ccccn3)c3c2CCC3)cc1F | 15.8 µM [falling, partial curve] |
| COc1cc(C(=O)NCc2ccc3c(c2)CCN3C(=O)c2ccc(Cl)cc2)cc(OC)c1OC | 15.8 µM [falling, partial curve] |
| O=C(CC1OC(=O)c2ccccc21)NC1CCCCC1 (configuration not stated) | 10 µM [falling, partial curve] |
| O=C(Nc1ccccc1Cl)N1CCC2(CC1)Oc1ccccc1C(=O)N2Cc1ccc(F)cc1 | 20 µM [falling, single point] |
| CCOC(=O)c1ccc(N2C(=O)c3[nH]nc(-c4ccc(OC)cc4)c3C2c2cccc(O)c2)cc1 (configuration not stated) | 15.8 µM [falling, partial curve] |
| COc1ccccc1NC(=O)Cn1nnc(C(=O)NCc2cccs2)c1N | 3.16 µM [rising, full curve] |
| O=c1cc(COc2ccccc2Cl)nc2scc(-c3ccccc3)n12 | 3.16 µM [rising, full curve, poor fit] |
| c1ccc(CNc2ncnc3ccccc23)cc1 | 2.51 µM [falling, full curve] |
| Cc1ccc(C2NC(=O)c3n[nH]c(-c4cccs4)c32)cc1 (configuration not stated) | 25.1 µM [falling, single point] |
| Cc1ccc(Cl)cc1N1CCN(C(=O)Cn2nc(C)c3sc4ccccc4c3c2=O)CC1 | 10 µM [falling, partial curve] |
| O=C(Nc1cccc(C(=O)OCc2cc(=O)n3c4c(sc3n2)CCCC4)c1)c1cccc(F)c1 | 2.51 µM [falling, full curve] |
| COc1ccc(NC(=O)CCS(=O)(=O)c2nc(-c3ccc4c(c3)OCO4)cc(C(F)(F)F)n2)cc1OC | 12.6 µM [falling, partial curve] |
| Cc1ccc(Cl)cc1NC(=O)CN1C=NS(=O)(=O)c2ccccc21 | 0.00501 µM [rising, full curve, poor fit] |
| CCc1ccc(S(=O)(=O)Nc2ccc3c(c2)sc(=O)n3C)cc1 | 3.16 µM [falling, single point] |
| Cc1cccc(Cn2c(=O)n(-c3cc(C)cc(C)c3)c(=O)c3oc4ccccc4c32)c1 | 12.6 µM [falling, partial curve] |
| O=c1c2ccccc2nc(SCc2ccccc2)n1Cc1ccco1 | 15.8 µM [falling, partial curve] |
| COc1ccc(N(C)C(=O)Cn2cnc3sc(C)c(S(=O)(=O)N4CCN(c5ncccn5)CC4)c3c2=O)cc1 | 2.51 µM [rising, partial curve, poor fit] |
| CCC(=O)N1CCCc2cc(S(=O)(=O)N3CCCc4ccccc43)ccc21 | 10 µM [falling, partial curve] |
| Cc1cccc(NC(=O)CSc2nc(-c3cccs3)nc3cc(=O)[nH]n23)c1 | 25.1 µM [falling, single point] |
| CCN(C(=O)c1ccco1)c1nc(CC(=O)Nc2ccc(Cl)cc2)cs1 | 31.6 µM [falling, single point] |
| COc1ccc(-c2c3c(nc4sc(C(=O)Nc5cccc(OC)c5)c(N)c24)CC(C)(C)CC3=O)cc1 | 7.94 µM [falling, partial curve] |

| Compound | AC50 |
| --- | --- |
| COc1ccc(OC)c(S(=O)(=O)N2CCC(C(=O)Nc3ccc(C)c(C)c3)CC2)c1 | 25.1 µM [falling, partial curve] |
| Cc1cc(C(=O)N2CCN(c3ccccc3F)CC2)c2c(C)nn(-c3ccccc3)c2n1 | 20 µM [falling, partial curve] |
| CCOC(=O)CCc1c(C)c2ccc(OCC(=O)N(CC)CC)c(C)c2oc1=O | 12.6 µM [falling, partial curve] |
| CCCCN(C)C(=O)CSc1c2c(nc3ccc(Cl)cc13)CCCC2 | 15.8 µM [falling, partial curve] |
| Cn1c(=O)c(=O)n(C)c2cc(NS(=O)(=O)c3ccc(Br)cc3)c(Cl)cc21 | 31.6 µM [falling, single point] |
| c1ccc(Nc2nc3ccccc3[nH]2)nc1 | 20 µM [falling, partial curve] |
| CCOC(=O)C1=C(CNCc2ccccc2Cl)NC(=O)NC1c1ccc2c(c1)OCO2 (configuration not stated) | 12.6 µM [falling, partial curve] |
| CCCCNC(=O)CSc1nc2cc3c(cc2c(=O)n1Cc1ccc(C(=O)NCCc2ccc(OC)c(OC)c2)cc1)OCO3 | 39.8 µM [rising, single point] [measured here: IkB-luc green channel] |
| CCOC(=O)c1sc(NC(=O)CSc2nnc(-c3ccco3)n2CC)c(C(=O)OCC)c1C | 6.31 µM [falling, partial curve] |
| O=C(CCC(=O)N1Cc2ccccc2Oc2ncccc21)NCc1cccc(Cl)c1 | 2.51 µM [falling, partial curve] |
| CC(Oc1ccccc1)C(=O)Nc1ccc(C(=O)OCc2cc(=O)n3nc(C4CC4)sc3n2)cc1 (configuration not stated) | 25.1 µM [falling, partial curve] |
| COc1ccc(-c2cn3c(n2)sc2cc(C(=O)Nc4ccc(C)c(Cl)c4)ccc23)cc1 | 12.6 µM [falling, partial curve] |
| CCOC(=O)c1[nH]c2c(c1Cc1ccccc1C)C(=O)CC(c1ccccc1)C2 (configuration not stated) | 5.01 µM [falling, partial curve] |
| CCc1ccc(NC(=O)c2cnn(-c3c(C)cccc3C)c2C2CCN(C(=O)OC(C)(C)C)CC2)cc1 | 7.94 µM [falling, partial curve] |
| O=C(NCCc1ccccc1)C(=O)NCC(c1cccs1)S(=O)(=O)c1cccs1 (configuration not stated) | 20 µM [rising, partial curve, poor fit] |
| CC1(C)N=C(SCc2ccc(Cl)cc2)c2ccccc2N1 | 0.00631 µM [falling, full curve, poor fit] |
| Cc1cc(=O)[nH]c2nnc(SCc3ccccc3F)n12 | 3.16 µM [rising, partial curve] |
| Cc1ccc(S(=O)(=O)N2CCN(Cc3cc(=O)n4nc(-c5ccccc5Cl)sc4n3)CC2)cc1 | 39.8 µM [falling, single point] |
| COc1ccccc1CNC(=O)c1cnc2sc(N3CCCCC3)nn2c1=O | 7.94 µM [rising, partial curve] |
| CCOC(=O)N1CCN(C(=O)CSCC(=O)Nc2nc(-c3ccc(OC)cc3)cs2)CC1 | 12.6 µM [falling, partial curve] |
| COc1cccc(C2C(C(=O)Nc3ccccc3OC)=C(C)Nc3nc(-c4ccco4)nn32)c1 (configuration not stated) | 31.6 µM [falling, single point] |

Not a retest: an excerpt of the list.

| Compound | AC50 |
| --- | --- |
| O=C(NCCc1ccccc1)C(=O)NCC(c1cccs1)S(=O)(=O)c1cccs1 (configuration not stated) | 20 µM [rising, partial curve, poor fit] |
| CC1(C)N=C(SCc2ccc(Cl)cc2)c2ccccc2N1 | 0.00631 µM [falling, full curve, poor fit] |
| Cc1cc(=O)[nH]c2nnc(SCc3ccccc3F)n12 | 3.16 µM [rising, partial curve] |

Carrying on.

| Compound | AC50 |
| --- | --- |
| Cc1ccc(NC(=O)C2CCN(S(=O)(=O)c3cccc4nonc34)CC2)nc1 | 20 µM [falling, partial curve] |
| CCC(Sc1nnc2c3ccccc3n(CC)c2n1)C(=O)Nc1ccc(NC(C)=O)cc1 (configuration not stated) | 31.6 µM [falling, single point] |
| COc1ccc(-c2noc(CSc3nc4ccc(C)cc4[nH]3)n2)cc1 | 15.8 µM [falling, partial curve] |
| O=C(Cn1nc(Cc2cccnc2)c2ccccc2c1=O)Nc1ccc(F)c(Cl)c1 | 39.8 µM [falling, single point] |
| COc1cccc(CNC(=O)c2sc3ncccc3c2-n2c(C)ccc2C)c1OC | 12.6 µM [falling, partial curve] |
| COc1ccc(C(=O)NCC(c2ccc(Cl)cc2)N2CCCCC2)cc1 (configuration not stated) | 31.6 µM [falling, single point] |
| CCC(C(=O)Nc1cc(C(F)(F)F)ccc1Cl)n1nc(C)c2sc3ccccc3c2c1=O (configuration not stated) | 15.8 µM [falling, partial curve] |
| COc1ccccc1CNC(=O)Cn1nc(C)n2cccc2c1=O | 7.94 µM [falling, full curve] |
| O=C(Cn1cnc2onc(-c3ccc(F)cc3)c2c1=O)N1CCN(c2ccc(F)cc2)CC1 | 31.6 µM [falling, single point] |
| Cc1ccc(Cc2c(C)nc3nc(SCC(=O)NCCC(C)C)nn3c2C)cc1 | 15.8 µM [falling, partial curve] |
| Cc1ccc(CN2C(=O)SC(Nc3ccc(Cl)cc3)C2=O)cc1 (configuration not stated) | 15.8 µM [falling, partial curve] |
| CC1CCN(c2nc3ccc(C(=O)NC(C)C)cc3s2)CC1 | 3.16 µM [falling, partial curve] |
| Cn1c(=O)[nH]c(=O)c2c1nc(Br)n2CCCSc1nc2ccccc2o1 | 20 µM [falling, single point] |
| O=C(Nc1onc2c1CCCC2)c1ccccc1 | 6.31 µM [rising, partial curve, poor fit] |
| CC1CCN(C(=O)c2ccc3c(c2)N(Cc2ccccc2F)C(=O)c2ccccc2S3(=O)=O)CC1 | 25.1 µM [falling, single point] |
| Cc1c(Cl)cccc1-n1ncc(C(=O)N2CCN(C)CC2)c1C1CCN(C(=O)OC(C)(C)C)CC1 | 25.1 µM [falling, single point] |
| COc1ccc(S(=O)(=O)n2nc(C)c(S(=O)(=O)N3CCCCC3)c2C)cc1 | 0.0251 µM [falling, full curve, poor fit] |
| COc1ccccc1N1CCN(C(=O)c2cc3c(=O)n(C)c4ccccc4c3s2)CC1 | 39.8 µM [falling, single point] |
| COc1ccc(-c2nc(SCC(=O)NC3CCCC3)c(-c3ccc(OC)cc3)[nH]2)cc1 | 20 µM [falling, partial curve] |
| C=C(C)Cn1c(SCC(=O)Nc2ccccc2C)nc2sc3c(c2c1=O)CCCC3 | 12.6 µM [falling, partial curve] |

Entries from the list above containing bromine (2):

| Compound | AC50 |
| --- | --- |
| Cn1c(=O)c(=O)n(C)c2cc(NS(=O)(=O)c3ccc(Br)cc3)c(Cl)cc21 | 31.6 µM [falling, single point] |
| Cn1c(=O)[nH]c(=O)c2c1nc(Br)n2CCCSc1nc2ccccc2o1 | 20 µM [falling, single point] |
